In patent US9862748B2 (priority 2012, dated 2018):

Assay: general procedure: Fmoc solid-phase peptide synthesis; Fmoc-Arg(Pbf)-Wang resin; DIC/HOBT
Conditions: whole synthesis, scale of the general procedure 0.1-mmol or 0.5-mmol

## [AEEA][AEEA]RRRRNQGRHFSGGALIHARFVMTAASCFQR
  final purity (method not given): 97.24%

Square brackets hold non-standard residues; d marks the D form. Ends that are not written are not given here. AEEA = NCCOCCOCC(=O)O
